# Data as given in PubChem BioAssay AID1224828 (NIAID, 2016)
# Screen: 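Find genes required for NF-kappaB p65 moving into the nucleus after LPS in mouse macrophages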 (primary screen)
# System: mouse RAW264.7 G9 macrophage reporter cells (GFP-p65, Tnf promoter-mCherry)
# Reagent: siRNA pool against mouse genes, 100 nM
# Time to read-out: 2 days siRNA transfection, then 40 min LPS before fixation
# Challenge: LPS (Salmonella minnesota R595) at 10 ng/ml
# Measured: 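Microscopy ratio of nuclear to perinuclear-ring GFP-p65 signal, scaled to the plate median; gene score is the average of two replicate robust z-scores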
# Direction: p65 translocation robust z-score: higher = more nuclear NF-kappaB p65 after LPS than the plate median; nuclear/cytoplasmic p65 ratio: higher = more nuclear NF-kappaB p65
# Call rule: 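Active if robust z is above 3.3 (negative regulators) or below -1.56, the Tlr4 control median (positive regulators); activity score 50 or more; control wells not called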
# Meaning of the calls: active = hit (p65 shift raised or lowered); inactive = no clear change
# The deposit covers about 17,000 reagents; shown is a part drawn at random. In the full data, 762 (4.5%) were called active. 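Active calls include both raised and lowered p65 entry, mostly lowered; wells with fewer than 50 cells lack a z-score.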 Raw values vary from plate to plate and are shown uncorrected.
gene,p65 translocation robust z-score,"nuclear/cytoplasmic p65 ratio, rep 1","nuclear/cytoplasmic p65 ratio, rep 2",low cell count flag,call
Zbtb14,0.01,1.53,1.49,enough cells to score,inactive
Hnrnpf,0.81,1.61,1.35,enough cells to score,inactive
Kir3dl2,-0.35,1.46,1.31,enough cells to score,inactive
Slc7a5,-0.11,1.27,1.33,enough cells to score,inactive
Sh2d4b,0.24,1.68,1.74,enough cells to score,inactive
Cldn5,-0.79,1.35,1.29,enough cells to score,inactive
Cndp2,-0.32,1.57,1.71,enough cells to score,inactive
Slc6a6,-0.11,1.39,1.24,enough cells to score,inactive
Cables2,,1.19,1.81,fewer than 50 cells per well; well left out of scoring,inactive
Defa1,0.09,1.53,1.61,enough cells to score,inactive
Pcdha3,0,1.38,1.29,enough cells to score,inactive
Wnt7b,-0.19,1.55,1.42,enough cells to score,inactive
Nfatc2,,0.972,1.15,fewer than 50 cells per well; well left out of scoring,inactive
Eva1a,-1.18,1.28,1.79,enough cells to score,inactive
Cept1,1.36,1.75,2.06,enough cells to score,inactive
Galt,1.42,1.54,1.63,enough cells to score,inactive
Hmg20b,-2.5,1.34,1.2,enough cells to score,active
Myo5a,-0.64,1.35,1.27,enough cells to score,inactive
Nnat,0.38,1.81,1.55,enough cells to score,inactive
Arhgap20,1.41,1.7,1.82,enough cells to score,inactive
Sim1,0.16,1.56,1.59,enough cells to score,inactive
Plin5,-0.8,1.26,1.07,enough cells to score,inactive
Naa16,0.46,1.55,1.55,enough cells to score,inactive
Brat1,0.65,1.44,1.64,enough cells to score,inactive
Rhox2a,,1.19,1.4,fewer than 50 cells per well; well left out of scoring,inactive
Sprr2a1,-1.41,1.26,1.05,enough cells to score,inactive

Reagents listed so far with an active call, once more:
gene,p65 translocation robust z-score,"nuclear/cytoplasmic p65 ratio, rep 1","nuclear/cytoplasmic p65 ratio, rep 2",low cell count flag,call
Hmg20b,-2.5,1.34,1.2,enough cells to score,active

The results go on.
gene,p65 translocation robust z-score,"nuclear/cytoplasmic p65 ratio, rep 1","nuclear/cytoplasmic p65 ratio, rep 2",low cell count flag,call
Cacna1g,1.05,1.83,1.71,enough cells to score,inactive
Eif2d,-1.01,1.63,1.33,enough cells to score,inactive
Tmem123,0.15,1.68,1.59,enough cells to score,inactive
Fdps,-2.08,1.09,1.2,enough cells to score,active
BC061195,-0.45,1.39,1.3,enough cells to score,inactive
D130079A08Rik,0.6,1.72,1.82,enough cells to score,inactive
Ndufb3,-0.34,1.85,1.44,enough cells to score,inactive
Gpr37l1,-0.6,1.41,1.5,enough cells to score,inactive
Golt1b,-0.42,1.3,1.83,enough cells to score,inactive
Neu3,-1.51,1.51,1.39,enough cells to score,inactive
H2-T24,-0.12,1.76,1.4,enough cells to score,inactive
5730453H04RIK,-0.63,1.27,1.39,enough cells to score,inactive
Immp1l,-0.64,1.46,1.35,enough cells to score,inactive
Arhgef17,-0.14,1.58,1.62,enough cells to score,inactive
Cct2,-0.45,1.33,1.32,enough cells to score,inactive
Ik,-0.79,1.34,1.27,enough cells to score,inactive
Irf2bp1,-1.82,1.29,1.19,enough cells to score,active
Inhca,-1.62,1.28,1.26,enough cells to score,active
Cox7a1,-0.85,1.4,1.7,enough cells to score,inactive
Popdc2,-0.26,1.31,1.22,enough cells to score,inactive
Sec22a,-0.22,1.37,1.24,enough cells to score,inactive
Tmem145,-0.12,1.46,1.94,enough cells to score,inactive
D130012P04Rik,0.41,1.73,1.75,enough cells to score,inactive
Nfatc4,1.58,1.69,1.5,enough cells to score,inactive
Rab15,0.1,1.44,1.18,enough cells to score,inactive
Pax7,-0.55,1.33,1.18,enough cells to score,inactive
Stk38,1.06,1.77,1.59,enough cells to score,inactive
Tlx3,,1.31,0,fewer than 50 cells per well; well left out of scoring,inactive
Emd,-0.58,1.53,1.28,enough cells to score,inactive
Defb39,-0.12,1.53,2.12,enough cells to score,inactive
Agbl1,0.7,1.63,1.69,enough cells to score,inactive
Il11,1.68,1.58,1.66,enough cells to score,inactive
Vmn1r6,2.12,1.72,1.42,enough cells to score,inactive
